Results deposited as PubChem BioAssay AID743454 (Peter MacCallum Cancer Centre, 2014)
This is an unselected part of about 18,000 deposited reagents. 450 of them (2.5%) were called active. 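Single biological run; no consistent viability z cut-off exists, so the class columns, not z-scores, define the calls.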

Assay: 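Genes whose loss kills vorinostat-resistant colon cancer cells under vorinostat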 (primary screen)
Cell system: human HCT116-VR colon cancer cells, selected for vorinostat resistance
Reagent: siRNA pool against human genes, 40 nM siRNA pool
Timing: vorinostat for 24 h, read-out about 72 h after transfection
Challenge: vorinostat at 2.5 µM final
Read-out: 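Two measures, CellTiter-Fluor viability and luminescent caspase 3/7 activity, each as fold change against same-plate mock wells, mean of duplicates, then screen-wide robust z-score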
Scale: viability robust z-score: higher = more viable cells than screen typical; caspase robust z-score: higher = more caspase 3/7 activity than screen typical
Rule for the call: 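a knock-down is a hit when classed RV1 or RV2 for lowered viability, or CA1 or CA2 for caspase activation; those lethal without drug were dropped; hits were retested singly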

Target gene | PubChem SID | viability hit class | caspase hit class | viability robust z-score | caspase robust z-score | outcome
SLC44A5 | SID152156053 | no change | no change | 0.66 | -0.12 | inactive
TNFSF10 (TNF superfamily member 10) | SID134315855 | no change | no change | 1.05 | 1.47 | inactive
ELN (elastin) | SID152150834 | no change | no change | 0.54 | 0.15 | inactive
CELF3 (CUGBP Elav-like family member 3) | SID152154915 | no change | no change | 0.47 | -0.06 | inactive
GSC (goosecoid homeobox) | SID134323064 | no change | no change | -2.62 | 1.82 | inactive
MRPL54 (mitochondrial ribosomal protein L54) | SID152152577 | no change | no change | 1.89 | 2.75 | inactive
MANEA (mannosidase endo-alpha) | SID134318554 | no change | no change | -0.21 | -0.62 | inactive
LPO (lactoperoxidase) | SID134325640 | no change | no change | 0.48 | -1.14 | inactive
CA8 (carbonic anhydrase 8 (inactive)) | SID152156723 | no change | no change | 0.86 | 1.39 | inactive
MYBPC3 (myosin binding protein C3) | SID152149987 | no change | no change | -0.44 | 1.8 | inactive
AVPI1 (arginine vasopressin induced 1) | SID135622641 | no change | no change | -0.97 | 0.8 | inactive
PRKD1 (protein kinase D1) | SID152147507 | no change | no change | -0.01 | -1.06 | inactive
SPRR1B (small proline rich protein 1B) | SID135623819 | no change | no change | -1.56 | 1.66 | inactive

Laid out differently: 2 of the entries above.
Target gene	PubChem SID	viability hit class	caspase hit class	viability robust z-score	caspase robust z-score	outcome
GSC (goosecoid homeobox)	SID134323064	no change	no change	-2.62	1.82	inactive
MRPL54 (mitochondrial ribosomal protein L54)	SID152152577	no change	no change	1.89	2.75	inactive

The results go on.
Target gene | PubChem SID | viability hit class | caspase hit class | viability robust z-score | caspase robust z-score | outcome
CLPTM1L (CLPTM1 like) | SID152151491 | no change | no change | -1.06 | 0.96 | inactive
ABL2 (ABL proto-oncogene 2, non-receptor tyrosine kinase) | SID152153611 | no change | no change | 0.68 | -0.3 | inactive
CYP2C9 (cytochrome P450 family 2 subfamily C member 9) | SID134313166 | no change | no change | 0.1 | -0.9 | inactive
MLLT10 (MLLT10 histone lysine methyltransferase DOT1L cofactor) | SID152153563 | no change | no change | 1.11 | 0.06 | inactive
TXNDC5 (thioredoxin domain containing 5) | SID135621985 | no change | no change | 0.53 | 0.66 | inactive
MEN1 (menin 1) | SID135622050 | no change | no change | -1.81 | 4.2 | inactive
NFKBID (NFKB inhibitor delta) | SID135620797 | no change | no change | 0.55 | 0.22 | inactive
DCST1 (DC-STAMP domain containing 1) | SID135623197 | no change | no change | 0.3 | -0.52 | inactive
E4F1 (E4F transcription factor 1) | SID152150199 | no change | no change | -0.2 | 0.42 | inactive
STRN3 (striatin 3) | SID135623686 | no change | no change | 0.34 | 1.62 | inactive
